Results are given in words; binding and its absence hold for the method and conditions named. Binding seen in cells or lysates may run through a third protein. Some entries that bind do so weakly or less than the wild type.
Columns and labels:
[1] = biological target: CXCR4 (pEnCMV-3× Flag vector) (UniProt P61073); assay: co-IP; HEK293T cells expressing only CXCR4 co-cultured with recombinant human NGAL (rhNGAL); lysates immunoprecipitated with protein A/G beads (CXCR4 or NGAL antibody), immunoblot with the other antibody; IgG as negative control; only the binder purified
[2] = biological target: CXCR4 (pEnCMV-3× Flag vector) (UniProt P61073); assay: co-IP; NGAL and CXCR4 co-expressed in HEK293T cells; 48 h after transfection lysates immunoprecipitated with protein A/G beads conjugated with CXCR4 or NGAL antibody, immunoblot with the other antibody; IgG as negative control

Protein sequences, listed by entry. Tags and fused reporters are not part of them. Residues count along the entry.
UniProt P61073: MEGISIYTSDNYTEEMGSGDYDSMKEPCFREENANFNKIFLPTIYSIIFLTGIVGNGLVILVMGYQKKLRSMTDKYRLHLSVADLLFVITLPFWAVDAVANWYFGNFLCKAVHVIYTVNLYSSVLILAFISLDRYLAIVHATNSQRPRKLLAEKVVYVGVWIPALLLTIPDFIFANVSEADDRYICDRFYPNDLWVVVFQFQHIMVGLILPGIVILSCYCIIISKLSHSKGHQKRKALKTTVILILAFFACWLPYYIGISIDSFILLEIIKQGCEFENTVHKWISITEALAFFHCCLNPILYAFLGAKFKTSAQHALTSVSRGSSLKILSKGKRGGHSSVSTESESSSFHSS
UniProt P80188, residues 21-198: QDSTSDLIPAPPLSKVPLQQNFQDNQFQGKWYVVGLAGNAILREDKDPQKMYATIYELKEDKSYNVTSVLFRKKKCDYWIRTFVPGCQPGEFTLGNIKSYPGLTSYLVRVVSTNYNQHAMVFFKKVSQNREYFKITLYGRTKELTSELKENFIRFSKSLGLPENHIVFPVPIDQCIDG

binding [1] | binding [2] | Substance
binds | – | recombinant human NGAL (from UniProt P80188 21-198)
– | binds | NGAL with a strep tag (pEZT vector) (from UniProt P80188 21-198)

Source: article PMC10582023
